Assay results from publication PMC10648572.
These are yes or no findings as the source states them, for the method shown. In cells and extracts the contact can be indirect. Here binding means that the protein was enriched with, or labelled near, the bait; the list need not be complete. Where a sequence is shown, tags or fusion partners need not be part of it.

By UniProt entry, the sequences of proteins in these tests, tags left out.
UniProt Q9H1X3: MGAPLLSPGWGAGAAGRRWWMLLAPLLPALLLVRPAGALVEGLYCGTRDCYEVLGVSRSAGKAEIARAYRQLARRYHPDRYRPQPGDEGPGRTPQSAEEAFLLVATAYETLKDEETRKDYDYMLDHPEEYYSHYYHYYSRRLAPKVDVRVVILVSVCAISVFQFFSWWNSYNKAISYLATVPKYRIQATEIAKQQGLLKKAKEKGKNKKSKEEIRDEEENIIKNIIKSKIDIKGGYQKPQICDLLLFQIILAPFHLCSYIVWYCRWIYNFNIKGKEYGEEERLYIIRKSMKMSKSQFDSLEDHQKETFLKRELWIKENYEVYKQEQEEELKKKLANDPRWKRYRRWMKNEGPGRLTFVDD

Molecular target: T1, E3 ubiquitin protein ligase RING finger protein 149 (RNF149), 3×FLAG-tagged, stably overexpressed in Huh7 cells (human) (UniProt Q8NC42)
T1 sequence: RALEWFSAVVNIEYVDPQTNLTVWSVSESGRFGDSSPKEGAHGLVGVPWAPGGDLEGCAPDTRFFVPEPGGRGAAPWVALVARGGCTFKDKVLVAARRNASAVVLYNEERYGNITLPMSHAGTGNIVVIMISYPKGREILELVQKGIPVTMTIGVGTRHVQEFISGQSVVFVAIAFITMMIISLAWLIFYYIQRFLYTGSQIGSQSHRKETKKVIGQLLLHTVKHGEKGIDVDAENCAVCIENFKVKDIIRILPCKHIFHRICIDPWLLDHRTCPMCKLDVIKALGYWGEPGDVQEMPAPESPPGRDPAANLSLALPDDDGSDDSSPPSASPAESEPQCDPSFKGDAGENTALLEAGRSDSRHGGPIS
Test: affinity purification with mass spectrometry; Huh7 cells with RNF149 overexpression, 50 μM MG132 for 6 h; whole cell lysate on anti-Flag-agarose beads; SDS-PAGE, Coomassie, MS (QE-HF); compared with negative control samples

Which binding does the source give for “DnaJ homolog subfamily C member 25 (DNAJC25), found in the RNF149 IP-MS from Huh7 cells (from UniProt Q9H1X3 1-360)” here?
The binding was “binds”.
